For at least one compound, name, drawing or mass did not settle the structure.
Legend:
Assay type in all cases: cell-based, human
[1] = test system: CD95-resistant neuroblastoma, SH-EP^CD95R; assay: Western blot of FLICE and PARP cleavage; details: 10 μg/ml, 24 h; FIG. 6B
[2] = test system: patients' derived neuroblastoma cells; assay: Apoptosis in neuroblastoma cells ex vivo, anti-GD2/annexin V two-color FACS; details: even at low concentrations of 0.5 μg/ml; 18 h; FIG. 1C
[3] = test system: FLICE, CPP32 and PARP in SH-EP neuroblastoma cells; assay: Western blot of FLICE (caspase-8), CPP32 (caspase-3) and PARP cleavage
Description: Cells were lysed for 30 min at 4° C. in PBS with 0.5% Triton X (Serva, Heidelberg, Germany) and 1 mM phenylmethylsulfonyl fluoride (Sigma, Deisenhofen, Germany) followed by high-speed centrifugation. Membrane proteins were eluted in buffer containing 0.1 M glycine. PH 3.0 and 1.5 M Tris, pH 8.8. Protein concentration was assayed using bicinchoninic acid (Pierce Chemical Co., Rockford, Ill.). Forty μg of protein per lane were separated by 12% SDS-PAGE and electroblotted onto nitrocellulose (Amersham, Braunschweig, Germany). Equal protein loading was controlled by Ponceau red staining of membranes. After blocking for 1 h in PBS supplemented with 2% BSA (Sigma) and 0.1% Tween 20 (Sigma), immunodetection of FLICE, CPP32, PARP, Bax, Bcl-x, Bcl-2, and p53 protein was done using mouse anti-FLICE monoclonal antibody C15 (1:5 dilution of hybridoma supernatant), mouse anti-CPP32 monoclonal antibody (1:1000, Transduction Laboratories, Lexington, KY), rabbit anti-PARP polyclonal antibody (1:10000, Enzyme Systems Products), rabbit anti-Bax polyclonal antibody (1:500, Calbiochem, Bad Soden, Germany), rabbit anti-Bcl-x polyclonal antibody (1:1000, Santa Cruz Biotechnology, Santa Cruz, Calif.), mouse anti-p53 monoclonal antibody (1:10000, Transduction Laboratories), and goat anti-mouse 1gG or goat antirabbit IgG (1:5000, Santa Cruz Biotechnology), ECL (Amersham) was used for detection.
FIG. 2B and FIG. 2C show the cleavage of FLICE, CPP32 and PARP. SH-EP neuroblastoma cells were treated with 10 μg/ml betulinic acid for indicated times or with 0.5 μg/ml doxorubicin for 24 h. Forty μg of protein per lane, isolated from cell lysates, were separated by 12% SDS-PAGE, Immunodetection of FLICE (FIG. 2B). CPP32 (FIG. 2C), and PARP (C) proteins was performed by mouse anti-FLICE monoclonal antibody, mouse anti-CPP32 monoclonal antibody, or rabbit anti-PARP polyclonal antibody and ECL.
SH-EP neuroblastoma cells were treated with 10 μg/ml betulinic acid for 24 h with or without 60 μM zVAD-frnk. Western blot analysis for FLICE and PARP cleavage was performed as described for FIG. 2B.
Cells were lysed for 30 mm at 4° C. in PBS with 0.5% Triton X (Serva, Heidelberg, Germany) and 1 mM PMSF (Sigma, Deisenhofen, Germany) followed by high-speed centrifugation. Membrane proteins were eluted in buffer containing 0.1 M glycine, pH 3.0 and 1.5 M Tris, pH 8.8. Protein concentration was assayed using bicinchoninic acid (Pierce, Rockford, Ill.). 40 μg protein per lane was separated by 12% or 15% SDS-PAGE and electroblotted onto nitrocellulose (Amersham, Braunschweig, Germany). Equal protein loading was controlled by Ponceau red staining of membranes. After blocking for 1 h in PBS supplemented with 2% BSA (Sigma) and 0.1% Tween 20 (Sigma), immunodetection of caspases-3 and -8, PARP, CD95-L, CD95 and cytochrome c protein was done using mouse anti-caspase-8 moab C15 (Scaffidi et al., 1997, J. Biol. Chem. 272:26953-26958, 1:5 dilution of hybridoma supernatant), mouse anti-caspase-3-specific moab (1:1,000, Transduction Laboratories, Lexington, Ky.), rabbit anti-PARP polyclonal antibody (1:10,000, Enzyme Systems Products), mouse anti-CD95-L moab (1:5,000, Transduction Laboratories), mouse anti-CD95 moab (1:1,000, Transduction Laboratories) or mouse anti-cytochrome c moab (1:5,000, PharMingen, San Diego, Calif.). Goat anti-mouse IgG or goat anti-rabbit IgG (1:5,000, Santa Cruz Biotechnology) followed by ECL (Amersham) was used for detection.
For determination of mitochondrial membrane potential, cells (5×10^5/ml) were incubated with 3,3′-dihexyloxacarbocyanide iodide (DiOC6(3), 40 nM, Molecular Probes, Inc., Eugene, Oreg.) for 15 min at 37° C. and analyzed on a flow cytometer (FACScan) (Zamzarni et al., 1996 J. Exp. Med. 183:1533-44). For cell sorting, cells were stained with DiOC6(3) and sorted into DiOC6(3)^high and DiOC6(3)^low cells on a cytofluorometer (FACS Vantage, Becton Dickinson). […]

[4] = 0.5 μg/ml Doxo or 10 μg/ml Bet A, 24 h, FIG. 14A

C=C(C)[C@@H]1CC[C@]2(C(=O)O)CC[C@]3(C)[C@H](CC[C@@H]4[C@@]5(C)CC[C@H](O)C(C)(C)[C@@H]5CC[C@]43C)[C@@H]12 [betulinic acid, 3β-3-hydroxylup-20(29)-en-28-oic acid]
cleavage of FLICE and PARP [1]: led to cleavage of FLICE and PARP | apoptosis of neuroblastoma cells ex vivo [2]: rapidly underwent apoptosis | caspase-3 (and PARP) processing in Bcl-2 or Bcl-XL overexpressing cells [3, 4]: processing of both caspase-8 and caspase-3 was inhibited by Bcl-2 or Bcl-XL | caspase-8 processing in Bcl-2 or Bcl-XL overexpressing cells [3, 4]: processing of both caspase-8 and caspase-3 was inhibited by Bcl-2 or Bcl-XL | caspase cleavage in cells sorted into ΔΨm^high and ΔΨm^low ([3]; 0.5 μg/ml Doxorubicin or 10 μg/ml Bet A, 18 h, FIG. 14B-2): only ΔΨm^low cells displayed cleaved caspases-3 and -8 | cleavage of FLICE ([3]; 10 μg/ml betulinic acid, 0.5 μg/ml doxorubicin 24 h, FIG. 2B): cleaved into p18 active subunits | cleavage of PARP ([3]; 10 μg/ml, FIG. 2C): cleaved to its characteristic M, 85,000 fragment | processing of CPP32 ([3]; 10 μg/ml, FIG. 2C): proteolytically processed
